# From PubChem BioAssay AID504834 (National Center for Advancing Translational Sciences (NCATS), 2011)
# The campaign covered roughly 320,000 compounds. About 22,000 (6.9%) were called active. The shares of active, inactive and inconclusive entries below differ from those in the screen. Calls come from the whole dose curve; as a rule, active = well fitted inhibition curve with a large enough effect; inconclusive = small, poorly fitted or top-dose-only effect, or another doubt; inactive = no such curve, though single readings can be large or run the other way. Where the call is inconclusive, the potency comes from a doubtful curve fit.
# Assay: Primary qHTS for delayed death inhibitors of the malarial parasite plastid, 96 hour incubation
# Settings: P. falciparum luciferase reporter growth; series mostly up to 28.7 µM; activity change, negative = inhibition: at the top concentration
# Summary of the method: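 Delayed-death screen, second-generation endpoint: infected erythrocytes, 2% hematocrit, 0.05% parasitemia final; 96 hours at 37 C, 5% CO2; luciferase detection reagent; luminescence decrease equals reduced growth.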
# % is set by controls: 0 for no effect and ±100 for the full control effect; potency is the fitted concentration of half-maximal effect.
Compound,"activity change, negative = inhibition",Potency
CC(NC(=O)CN(C)Cc1cccs1)c1ccccc1 (configuration not stated),inactive: 39.3%,–
COc1ccc(C(=O)NC(Cn2ccnc2)C(C)(C)C)cc1OC1CCN(C(C)C)CC1 (configuration not stated),inactive: -55.9%,–
O=C(C1CCN(c2nc(-c3ccccc3)nc3c2CCC3)CC1)N1CCC(O)CC1,–,"inconclusive: 18.5 µM [inhibitor, single point]"
CSc1ccc(C2=CC(=O)C[C@H](c3ccc(F)cc3)C2)cc1,–,"inconclusive: 18.5 µM [inhibitor, single point]"
COc1ccc(CNC(=O)CN(C(=O)c2cc3sccc3n2C)C2CCCC2)cc1,–,"inconclusive: 3.7 µM [inhibitor, full curve]"
CC1CCCN(CCCNC(=O)c2cc3c(s2)-c2ccccc2OC3)C1 (configuration not stated),inactive: 13.3%,–
Cc1cccnc1NC(=S)NCCc1ccccc1,inactive: -3%,–
Cc1nc(-c2cccs2)ccc1C(=O)O,–,"inconclusive: 0.465 µM [inhibitor, full curve, poor fit]"
Cc1ccccc1NS(=O)(=O)c1cc(OCC(N)=O)c(C)cc1Cl,–,active: 10.4 µM
Cc1ccccc1-n1c(=O)cc(NCc2ccc3c(c2)OCO3)[nH]c1=O,–,"inconclusive: 14.7 µM [inhibitor, partial curve, poor fit]"
C=CCNC(=O)CN(c1cccc(Br)c1)S(C)(=O)=O,–,"inconclusive: 18.5 µM [inhibitor, single point]"
CC1SCC(=O)N(CC(=O)NCCc2ccccc2)C1=O (configuration not stated),–,"inconclusive: 2.08 µM [inhibitor, partial curve, poor fit]"
C(=N\Nc1nc2ccccc2[nH]1)/C1CCCCC1,–,"inconclusive: 13.1 µM [inhibitor, single point]"
Cc1cc(NC(=O)CCCN2C(=O)c3cccnc3C2=O)no1,–,active: 11.7 µM
CC1=Nn2c(nnc2-c2ccc(F)cc2)SC1,–,"inconclusive: 0.928 µM [inhibitor, partial curve, poor fit]"
COc1cc(/C=N/NC(=O)c2cccc([N+](=O)[O-])c2)ccc1OCc1ccccc1,–,active: 9.28 µM
CCCNC(=S)NC1CC2CCCC(C1)N2Cc1ccc(F)cc1 (configuration not stated),–,"inconclusive: 18.5 µM [inhibitor, partial curve, poor fit]"
O=C(O)/C=C/C(=O)c1c(-c2ccccc2)[nH]c2ccccc12,–,active: 4.15 µM
CCc1ccc(NC(=O)CO/N=C(\C)c2cc3ccccc3o2)cc1,inactive: 89.1%,–
C=CCc1c(C)nc(SCCC)[nH]c1=O,–,"inconclusive: 18.5 µM [inhibitor, single point]"
CC(C(=O)Nc1ccc(F)c(F)c1F)N(C)Cc1cccs1 (configuration not stated),inactive: 1.67%,–
COc1ccc(-c2cc(C(F)(F)F)nc(S(C)(=O)=O)n2)cc1,–,"inconclusive: 9.28 µM [inhibitor, partial curve]"
Cn1c2ccccc2c2c(C(=O)N3CCN(c4ccccn4)CC3)cn(C3CCCC3)c(=O)c21,–,"inconclusive: 11.7 µM [inhibitor, single point]"
CCOc1cc(-c2noc(N)c2C#N)cc(OCC)c1OCC,–,"inconclusive: 1.31 µM [inhibitor, full curve, poor fit]"
O=C(COc1ccccc1Cl)Nc1ccc(Cl)cn1,–,active: 10.4 µM
COc1ccc(-c2c(-c3cc(OC)c(OC)c(OC)c3)noc2C)cn1,–,"inconclusive: 18.5 µM [inhibitor, single point]"

# Copied from the list.
# Entry for Cc1cc(NC(=O)CCCN2C(=O)c3cccnc3C2=O)no1 under Potency: active: 11.7 µM
# Entry for COc1ccc(CNC(=O)CN(C(=O)c2cc3sccc3n2C)C2CCCC2)cc1 under Potency: inconclusive: 3.7 µM [inhibitor, full curve]
# Entry for CC1SCC(=O)N(CC(=O)NCCc2ccccc2)C1=O (configuration not stated) under Potency: inconclusive: 2.08 µM [inhibitor, partial curve, poor fit]

# Carrying on.

Compound,"activity change, negative = inhibition",Potency
CCN(CCCNC(=O)CCNC(=O)Cn1cnc2ccccc2c1=O)c1ccccc1,inactive: 41%,–
O=C(c1ccc(N2CCOCC2)nc1)N1CCCCC1,–,"inconclusive: 11.7 µM [inhibitor, single point]"
O=C(c1cc(-c2ccc(Cl)cc2)on1)N1CCN(c2ccccc2)CC1,inactive: 66.5%,–
COc1ccc(C(=O)C[n+]2ccccc2/C=N/O)cc1,–,"inconclusive: 18.5 µM [inhibitor, single point]"
C=CCn1c(CCC(=O)Nc2ccc(C)c(Cl)c2)nnc1SCC(=O)Nc1ccccc1C,–,"inconclusive: 13.1 µM [inhibitor, single point]"
O=C(CSc1nnc(C2COc3ccccc3O2)o1)N1CCCCC1 (configuration not stated),–,"inconclusive: 3.29 µM [inhibitor, full curve, poor fit]"
O=C(Cc1ccc(Br)cc1)Nc1cccc(S(=O)(=O)N2CCOCC2)c1,–,"inconclusive: 13.1 µM [inhibitor, single point]"
CCN(C(=O)c1cc([N+](=O)[O-])ccc1NCc1cccnc1)c1ccccc1,inactive: 0.165%,–
COc1cc2c(cc1OC)C(c1cccs1)N(C(=S)NC(C)C)CC2 (configuration not stated),–,"inconclusive: 14.7 µM [inhibitor, single point]"
COc1ccc(-c2nc(CN3CCC(C(=O)N4CCOCC4)CC3)c(C)o2)cc1C,–,"inconclusive: 4.15 µM [inhibitor, single point]"
O=C(NCCCN1CCOCC1)c1ccc(CSc2ccc(Cl)cc2)cc1,–,"inconclusive: 10.4 µM [inhibitor, single point]"
CCN(CC)CCNC(=O)c1cn(CC)c2cc(N3CCN(C)CC3)c(F)cc2c1=O,inactive: -21.7%,–
O=S(=O)(NCc1cccnc1)c1ccc(Cl)cc1,–,"inconclusive: 9.28 µM [inhibitor, single point]"
C=CCN(c1ccc(C(=O)Nc2cccc([N+](=O)[O-])c2)cc1)S(C)(=O)=O,–,"inconclusive: 10.4 µM [inhibitor, partial curve]"
Brc1ccc(-c2nnc(-c3ccc4c(c3)OCO4)o2)o1,inactive: 13%,–
CCn1c(O)c(N=NC(=S)NCC2CCCO2)c2ccccc21 (configuration not stated),–,"inconclusive: 1.65 µM [inhibitor, full curve]"
COc1ccc(/C(C#N)=C/c2cccnc2)cc1,inactive: 68.3%,–
COc1ccc(C)cc1NC(=O)C(=O)c1cn(CC(=O)N2CCCC2)c2ccccc12,–,active: 8.28 µM
CC(=O)c1cccc(NC(=O)C2C3C=CC(C3)C2C(=O)O)c1 (configuration not stated),inactive: 22.7%,–
Cc1ccc(C)c(NC(=O)CSc2nnc(C3CCCCC3)o2)c1,inactive: -21.5%,–
CC(C)(CNC(=O)CC1C(=O)NCCN1Cc1cccc(F)c1F)N1CCOCC1 (configuration not stated),inactive: 2.51%,–
Cc1c(CC(=O)N2CCN(C(=O)C3COc4ccccc4O3)CC2)c(=O)oc2cc(O)ccc12 (configuration not stated),–,"inconclusive: 1.47 µM [inhibitor, partial curve, poor fit]"
COc1ccccc1/C=N/N1C(=O)C2C3C=CC(CC3)C2C1=O (configuration not stated),inactive: -17.1%,–
Cc1ccc(CSCCNC(=O)/C=C/c2ccccc2Cl)cc1,inactive: -5.22%,–
CCN(CC)CCn1c(NC(=O)c2ccc(Cl)cc2)nc2ccccc21,–,active: 3.7 µM
Cc1ccc(S(=O)(=O)N2CCC(C(=O)N/N=C/c3cccnc3)CC2)cc1,inactive: -22.3%,–

Compound,"activity change, negative = inhibition",Potency
CC1(C)CC(=O)C2=C(C1)OC(N)=C(C#N)C21CCN(C(=O)OCc2ccccc2)CC1,inactive: 12.6%,–
O=[N+]([O-])C(=C1Nc2ccccc2N1)C(Cl)=C(Cl)Cl,inactive: 30.1%,–
Cc1cc(C(=O)NNC(=O)c2ccc(NC(=O)CC#N)cc2)c(C)o1,inactive: -26.3%,–
CC1C(=O)C(C)C(c2ccccc2F)NC1c1ccccc1F (configuration not stated),–,"inconclusive: 18.5 µM [inhibitor, single point]"
Cc1ccnc2ccc(P(=O)(c3ccccc3)c3ccccc3)cc12,–,"inconclusive: 0.586 µM [inhibitor, full curve, poor fit]"
Cc1ccc(C)c(N(CC(=O)NC2CCCC2)C(=O)c2cc3cc4cccc(C)c4nc3s2)c1,–,"inconclusive: 10.4 µM [inhibitor, single point]"
O=C(CCC1CCCCC1)NCCN1C2=NC[C@@H](Cc3ccccc3)N2C[C@H]1Cc1ccc(O)cc1,–,active: 2.33 µM
CCOC(=O)C1=NN(c2ccccc2)C(c2ccccc2)CC1=O (configuration not stated),–,"inconclusive: 11.7 µM [inhibitor, single point]"
O=C(Nc1sc2c(c1C(=O)O)CCCC2)c1cccc(Cl)c1,inactive: 27.4%,–
O=C(Cc1ccccc1)N/N=C/c1ccc[nH]1,inactive: -3.64%,–
CCOc1ccc(S(=O)(=O)n2cc(F)c(=O)[nH]c2=O)cc1[N+](=O)[O-],–,"inconclusive: 4.15 µM [inhibitor, partial curve]"
Fc1cccc(Nc2nc(-c3ccncc3)nc3ccccc23)c1,–,active: 4.15 µM
O=S(=O)(c1ccccc1)N1CCN(S(=O)(=O)N2CCCCCC2)CC1,–,"inconclusive: 11.7 µM [inhibitor, partial curve]"
CN(C)S(=O)(=O)c1cccc(NC(=O)COC(=O)c2ccc([N+](=O)[O-])o2)c1,inactive: 5.72%,–
CCn1c(SCC(=O)Nc2nccs2)nnc1-c1ccncc1,–,"inconclusive: 11.7 µM [inhibitor, single point]"
Clc1cccc(-c2nc(-c3ccccn3)no2)c1,–,active: 7.38 µM
CCC(C)(C(=O)NC1CCCC1)N(C(=O)CC1NC(=O)NC1=O)c1ccc(C)cc1 (configuration not stated),–,"inconclusive: 9.28 µM [inhibitor, partial curve, poor fit]"
Cc1nc(CS(=O)c2ccccc2)cc(N2CCOCC2)n1 (configuration not stated),–,active: 8.28 µM
CC(C)CC1Nc2ncnc(N3CCN(c4ccccc4)CC3)c2N(Cc2ccc(Br)cc2)C1=O (configuration not stated),–,active: 5.86 µM
CC(=O)OCc1nc2sc(C)c(C)c2c(=O)[nH]1,–,"inconclusive: 0.0828 µM [inhibitor, full curve, poor fit]"
COc1cc2c(C(=O)NCc3ccc(C)o3)cn(CC(C)C)c(=O)c2cc1OC,–,"inconclusive: 4.15 µM [inhibitor, single point]"
Cc1occc1C(=O)Nc1ccc([N+](=O)[O-])cc1Br,inactive: 27.3%,–
COc1cccc(-n2cnc3sc(C)cc3c2=O)c1,inactive: 8.26%,–
NS(=O)(=O)c1ccc(NC(=O)CN2CCCc3ccccc32)cc1,inactive: 17.1%,–
Cc1c(Cl)cccc1NC(=O)CSc1ncnc2c1cnn2CCO,inactive: -25.3%,–
